Laboratory results published in patent publication US5631222A (Kyowa Hakko Kogyo Co., Ltd., priority 1993, dated 1997).

Test: general procedure: Fmoc solid-phase peptide synthesis; carrier resin to which Fmoc-Trp (Fmoc-Phe, Fmoc-D-Trp) was bound; PyBOP/HOBt/NMM (fragment condensations)
Conditions: whole synthesis, scale 10.2 μmol

| Substance | crude mass [mg] | isolated mass [mg] |
| --- | --- | --- |
| HGlyAsnTrpHisGlyThrAlaProAspTrpValTyrPheAlaHisLeuAspIleIlePheOH | 41.6 | 16.6 |

Same assay, conditions: whole synthesis, scale 10.4 μmol

| Substance | crude mass [mg] | isolated mass [mg] |
| --- | --- | --- |
| HGlyAsnTrpHisGlyThrAlaProAspTrpValTyrPheAlaHisLeuThrLeuIleTrpOH | 29.4 | 14.1 |
| HAsnTrpHisGlyThrAlaProAspTrpValTyrPheAlaHisLeuAspIleIleTrpOH | 29.3 | 4.6 |
| HGlyAsnTrpHisGlyThrAlaProAspTrpPheAlaHisLeuAspIleIleTrpOH | 42.7 | 10.3 |
| HGlyAsnTrpHisGlyGlyAlaProAspTrpValTyrPheAlaHisLeuAspIleIleTrpOH | 41.5 | 21.3 |
| HGlyAsnTrPHisGlyThrAlaProAspAlaValTyrPheAlaHisLeuAspIleIleTrpOH | 42.0 | 16.6 |
| HTrpHisGlyThrAlaProAspTrpValTyrPheAlaHisLeuAspIleIleTrpOH | 24.9 | 8.7 |
| HGlyAsnTrpHisGlyThrAlaProAspTrpValTyrPheAlaHisLeuGluIleIleTrpOH | 25.8 | 8.6 |
| HGlyAsnTrpHisGlyThrAlaProAspTrpTyrPheAlaHisLeuAspIleIleTrpOH | 43.4 | 5.8 |
| HGlyAsnTrpHisGlyThrAlaProAspTrpValTyrPheAlaHisLeuThrThiIleD-TrpOH | 26.5 | 8.8 |
| HGlyAspTrpLysGlyThrSerProAspTrpValTyrPheAlaHisLeuAsplleIleTrpOH | 26.8 | 6.3 |
| HGlyAsnTrpHisGlyThrAlaProAspTrpValTyrPheAlaD-TrpNvaGluIleD-IleTrpOH | 27.3 | 9.1 |
| HGlyAsnTrpHisGlyThrAlaProAspTrpValTyrD-PheAlaHisLeuSerMetIleTrpOH | 29.0 | 9.5 |
| HGlyAsnTrpHisGlyThrAlaAlaAspTrpValTyrPheAlaHisLeuSerMetIleTrpOH | 25.8 | 7.4 |
| HHisGlyThrAlaProAspTrpValTyrPheAlaHisLeuAspIleIleTrpOH | 24.7 | 11.5 |
| HGlyAsnTrpHisThrThrAlaProAspTrpValTyrPheAlaHisLeuAspIleleTrpOH | 39.4 | 17.9 |
| HCysAsnTrpHisGlyThrAlaProCysTrpValTyrPheAlaHisLeuAspIleIleTrpOH | 39.5 | – |

Same assay, conditions: whole synthesis, scale 12.6 μmol

| Substance | crude mass [mg] | isolated mass [mg] |
| --- | --- | --- |
| HCysAsnTrpHisGlyThrAlaProCysTrpValTyrPheAlaHisLeuThrChaIleTrpOH | 34.2 | – |
| HGlyAsnTrpHisGlyThrAlaProAspTrpValTyrPheAlaHisLeuSerMetIleTrpOH | 22.9 | 6.5 |
| HGlyAsnTrpHisGlyThrAlaProAspTrpValTyrPheAlaHisLeuThrAbuIleTrpOH | – | 5.2 |
| HGlyAsnTrpHisGlyThrAlaProAspTrpValTyrPheAlaHisLeuThrTyrIleTrpOH | 23.7 | 7.4 |
| HGlyAsnTrpHisGlyThrAlaProAspTrpValTyrPheAlaHisLeuThrMetIleTrpOH | 29.9 | 7.1 |
| HGlyAsnTrpHisGlyThrAlaProAspTrpValTyrPheAlaHisLeuThrThiIleTrpOH | 31.3 | 7.6 |
| HGlyAsnTrpHisGlyThrAlaProAspTrpValTyrPheAlaHisLeuAsnTyrIleTrpOH | 28.4 | 13.8 |
| HGlyAsnTrpHisGlyThrAlaProAspTrpValTyrPheAlaHisLeuThrChaIleTrpOH | – | 6.3 |
| HCysAsnTrpHisGlyThrAlaProCysTrpValTyrPheAlaHisLeuThrLeuIleTrpOH | 35.1 | – |
| HGlyAsnTrpHisGlyThrAlaProAspTrpValTyrPheAlaHisLeuAspLeuIleTrpOH | – | 8.2 |

Same assay, conditions: whole synthesis, scale 15.6 μmol

| Substance | crude mass [mg] | isolated mass [mg] |
| --- | --- | --- |
| HTrpValTyrPheAlaHisLeuAspIleIleTrpOH | 40.5 | 10.9 |

Same assay, conditions: whole synthesis, scale 18.0 μmol

| Substance | crude mass [mg] |
| --- | --- |
| HCysAsnTrpLysGlyThrSerProCysTrpValTyrPheAlaHisLeuThrThiIleTrpOH | 51.5 |

Same assay, conditions: whole synthesis, scale 18.9 μmol

| Substance | crude mass [mg] | isolated mass [mg] |
| --- | --- | --- |
| HGlyAsnTrpHisGlyThrAlaProAspTrpValTyrPheAlaHisLeuThrPhgIleTrpOH | 37.0 | 2.2 |
| HGlyAsnTrpHisGlyThrAlaProAspTrpValTyrPheAlaHisLeuThrNleIleTrpOH | 30.3 | 5.5 |
| HGlyAsnTrpHisGlyThrAlaProAspTrpValTyrPheD-AlaHisLeuThrThiIleTrpOH | 35.0 | 7.7 |
| HGlyAsnTrpHisGlyThrAlaProAspTrpValTyrPheAlaHisNvaThrThiIleTrpOH | 49.3 | 12.6 |
| HGlyAsnTrpHisGlyThrAlaProAspTrpValTyrPheAlaD-TrpLeuThrThiIleTrpOH | 41.0 | 15.7 |
| HGlyAsnTrpHisGlyThrAlaProAspTrpValTyrPheAlaHisLeuThrThiD-IleTrpOH | 49.5 | 17.9 |
| HGlyAsnTrpHisGlyThrAlaProAspTrpValTyrPheAlaHisLeuGlyThiIleTrpOH | 57.5 | 15.0 |

Same assay, conditions: whole synthesis, scale 25.2 μmol

| Substance | crude mass [mg] | isolated mass [mg] |
| --- | --- | --- |
| HGlyAsnTrpLysGlyThrSerProAspTrpValTyrPheAlaHisLeuThrThiIleTrpOH | 46.5 | 14.4 |

Same assay, conditions: whole synthesis, scale 30.0 μmol

| Substance | crude mass [mg] | isolated mass [mg] |
| --- | --- | --- |
| HGlyAsnTrpHisGlyThrAlaProAspTrpValTyrPheAlaHisLeuThrMeLeuIleTrpOH | 45.3 | 2.0 |
| HGlyAsnTrpHisGlyThrAlaProAspTrpValTyrPheAlaHisLeuThrMeIleIleTrpOH | 28.6 | 0.6 |
